Source: article PMC7655957
Changes are numbered by the printed parent chain. In names and notes the source's numbering stands. No constants are given. Whether binding was seen depends on the method and setting. For some assays here: Sequences can lack the tags named with a protein. Values belong to the binder of their own block, whether it stands above or below them.

By UniProt entry, the sequences of proteins in these tests, tags left out.
UniProt Q9Y6G9: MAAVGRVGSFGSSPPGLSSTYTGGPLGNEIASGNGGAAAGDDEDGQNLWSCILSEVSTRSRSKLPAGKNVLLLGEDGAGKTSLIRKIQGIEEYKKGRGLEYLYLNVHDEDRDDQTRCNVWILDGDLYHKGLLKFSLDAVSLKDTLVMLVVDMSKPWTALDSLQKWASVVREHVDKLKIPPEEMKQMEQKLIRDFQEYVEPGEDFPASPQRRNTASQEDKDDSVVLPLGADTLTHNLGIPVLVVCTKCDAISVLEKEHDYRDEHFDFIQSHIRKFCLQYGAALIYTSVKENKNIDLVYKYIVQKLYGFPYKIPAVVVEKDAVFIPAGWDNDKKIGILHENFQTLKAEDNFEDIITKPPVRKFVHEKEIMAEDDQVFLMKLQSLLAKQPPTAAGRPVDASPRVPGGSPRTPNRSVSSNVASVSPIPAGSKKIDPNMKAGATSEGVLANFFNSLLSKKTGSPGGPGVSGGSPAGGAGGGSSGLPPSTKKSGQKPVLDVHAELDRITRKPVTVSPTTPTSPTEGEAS

Tests used:
[1] = target: MBP-LIC1FL, full-length dynein light intermediate chain-1 (human) (UniProt Q9Y6G9); test: ITC; EF-hand pairs titrated into MBP-LIC1FL; 20 mM HEPES (pH 7.5), 100 mM NaCl, 0.5 mM TCEP, 5 mM EGTA; 20 or 30 °C; both purified
[2] = target: MBP-LIC1FL, full-length dynein light intermediate chain-1 (human) (UniProt Q9Y6G9); test: ITC; EF-hand pairs titrated into MBP-LIC1FL; 20 mM HEPES (pH 7.5), 100 mM NaCl, 0.5 mM TCEP, 5 mM CaCl2; 20 or 30 °C; both purified

binding [1]: no binding (condition: with 5 mM EGTA)
B1: MBP-CRACR2a_(47–122), EF-hand pair of calcium release-activated calcium channel regulator 2A (domain or fragment, UniProt Q9BSW2-1 47-122)
chain: GQLVMLRKAQEFFQTCDAEGKGFIARKDMQRLHKELPLSLEELEDVFDALDADGNGYLTPQEFTTGFSHFFFSQNN

binding [2]: no binding
B2: CRACR2a_(47–122) F58D (domain or fragment, UniProt Q9BSW2-1 47-122)
chain: B1 chain with F12D
